Values from PubChem BioAssay AID1259405 (NCATS, 2018).
This is an unselected part of about 50,000 reagents. About 4,000 of them (8%) were called active. 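Mouse siRNA library applied to hamster cells; one well for each siRNA.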 Reagents against one gene are numbered here. No sequences are given here.

Aim: 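Mouse-designed siRNAs used to find CHO productivity engineering targets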 (primary screen)
Cell system: Chinese hamster CHO-K1 ovary cells with stable secreted eGFP expression
Knock-down reagent: single siRNA against mouse genes, 0.8 pmol siRNA per well (2 µl of 400 nM stock)
Timing: 3 days
Read-out: 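Percent of the per-plate non-targeting control median for intracellular GFP per well by laser scanning cytometry and for cell viability by ATP luminescence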
Reading the numbers: GFP, % of control: higher = more GFP per well, higher productivity; viability (ATP), % of control: higher = more viable cells (more ATP)
Hit rule: 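a knock-down is called active if GFP reaches 120% or more of non-targeting control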

With knock-down of Nkd1 (naked cuticle 1) #1, the record shows GFP, % of control 62; viability (ATP), % of control 43; inactive.
With knock-down of Nkd1 (naked cuticle 1) #2, the screen gave GFP, % of control 80; viability (ATP), % of control 89.5; inactive.
Silencing of Nkd1 (naked cuticle 1) #3 came out at: GFP, % of control 99.5; viability (ATP), % of control 66.8; inactive.
After knock-down of Arl1 (ADP-ribosylation factor-like 1) #1, the record shows GFP, % of control 76.9; viability (ATP), % of control 79.8; inactive.
Arl1 (ADP-ribosylation factor-like 1) #2 scored GFP, % of control 113; viability (ATP), % of control 88.6; inactive.
Arl1 (ADP-ribosylation factor-like 1) #3 scored GFP, % of control 34.5; viability (ATP), % of control 41.6; inactive.
For Spaca1 (sperm acrosome associated 1) #1, the values are GFP, % of control 138; viability (ATP), % of control 97.8; active.
For Spaca1 (sperm acrosome associated 1) #2 the deposit lists GFP, % of control 114; viability (ATP), % of control 96.1; inactive.
Against Spaca1 (sperm acrosome associated 1) #3, the values are GFP, % of control 108; viability (ATP), % of control 101; inactive.
Prkaca (protein kinase, cAMP dependent, catalytic, alpha) showed GFP, % of control 114; viability (ATP), % of control 113; inactive.
Msc (musculin) #1 gave GFP, % of control 44.4; viability (ATP), % of control 52.9; inactive.
Depletion of Msc (musculin) #2 resulted in: GFP, % of control 170; viability (ATP), % of control 130; active.
Msc (musculin) #3 gave GFP, % of control 81; viability (ATP), % of control 106; inactive.
With knock-down of Msc (musculin) #4 the results were GFP, % of control 104; viability (ATP), % of control 77.9; inactive.
Knock-down of Msc (musculin) #5 gave: GFP, % of control 107; viability (ATP), % of control 88.3; inactive.
Msc (musculin) #6 gave GFP, % of control 79.8; viability (ATP), % of control 85; inactive.
After knock-down of Cidea #1 the results were GFP, % of control 90.2; viability (ATP), % of control 95.9; inactive.
After knock-down of Cidea #2, the screen gave GFP, % of control 88.8; viability (ATP), % of control 80.9; inactive.
Cidea #3 gave GFP, % of control 102; viability (ATP), % of control 144; inactive.

Records listed so far marked active (2):
Spaca1 (sperm acrosome associated 1) #1 — GFP, % of control = 138; viability (ATP), % of control = 97.8; Call = active
Msc (musculin) #2 — GFP, % of control = 170; viability (ATP), % of control = 130; Call = active

The listing continues:
For Gabrb1 (gamma-aminobutyric acid type A receptor subunit beta 1) #1, the entry reads GFP, % of control 86.2; viability (ATP), % of control 107; inactive.
Against Gabrb1 (gamma-aminobutyric acid type A receptor subunit beta 1) #2 the deposit lists GFP, % of control 55; viability (ATP), % of control 48.9; inactive.
Silencing of Gabrb1 (gamma-aminobutyric acid type A receptor subunit beta 1) #3 came out at: GFP, % of control 29.3; viability (ATP), % of control 22; inactive.
Silencing of Prkag1 (protein kinase, AMP-activated, gamma 1 non-catalytic subunit) #1 resulted in: GFP, % of control 29.5; viability (ATP), % of control 27.8; inactive.
Prkag1 (protein kinase, AMP-activated, gamma 1 non-catalytic subunit) #2 showed GFP, % of control 85.3; viability (ATP), % of control 72.1; inactive.
For Edc4 (enhancer of mRNA decapping 4) #1, the values are GFP, % of control 77.1; viability (ATP), % of control 56.6; inactive.
For Edc4 (enhancer of mRNA decapping 4) #2, the entry reads GFP, % of control 77.3; viability (ATP), % of control 88.2; inactive.
Against Edc4 (enhancer of mRNA decapping 4) #3 the deposit lists GFP, % of control 76.4; viability (ATP), % of control 88; inactive.
Silencing of Ehd4 (EH-domain containing 4) #1 gave: GFP, % of control 117; viability (ATP), % of control 80.5; inactive.
Knock-down of Ehd4 (EH-domain containing 4) #2 came out at: GFP, % of control 66.7; viability (ATP), % of control 66.2; inactive.
After knock-down of Ehd4 (EH-domain containing 4) #3, the record shows GFP, % of control 65.9; viability (ATP), % of control 83.1; inactive.
Silencing of Slc38a9 #1 gave: GFP, % of control 39.9; viability (ATP), % of control 42.2; inactive.
With knock-down of Slc38a9 #2, the screen gave GFP, % of control 107; viability (ATP), % of control 93.4; inactive.
Slc38a9 #3 scored GFP, % of control 100; viability (ATP), % of control 109; inactive.
Silencing of Rab39a (RAB39A, member RAS oncogene family) #1 gave: GFP, % of control 73.5; viability (ATP), % of control 117; inactive.
Rab39a (RAB39A, member RAS oncogene family) #2 gave GFP, % of control 52.4; viability (ATP), % of control 62.1; inactive.
For Rab39a (RAB39A, member RAS oncogene family) #3, the entry reads GFP, % of control 85.2; viability (ATP), % of control 88.3; inactive.
With knock-down of Casp6 (caspase 6) #1, the record shows GFP, % of control 99; viability (ATP), % of control 76.5; inactive.
Casp6 (caspase 6) #2 showed GFP, % of control 49.4; viability (ATP), % of control 67.4; inactive.
Against Casp6 (caspase 6) #3, the values are GFP, % of control 113; viability (ATP), % of control 60.4; inactive.
With knock-down of Clvs1 (clavesin 1) #1, the screen gave GFP, % of control 67.6; viability (ATP), % of control 48; inactive.
With knock-down of Clvs1 (clavesin 1) #2, the record shows GFP, % of control 77.9; viability (ATP), % of control 94.6; inactive.
For Clvs1 (clavesin 1) #3, the entry reads GFP, % of control 106; viability (ATP), % of control 115; inactive.
